{"source": "patent US11389509B1", "about": "“Methods for treatment of social dysfunction neurological disorders and seizures” (University of Virginia Patent Foundation, priority 2017, dated 2022)", "tested_on": "layer 2/3 prefrontal cortical neurons", "experiment": "Whole-cell patch-clamp of tonic inhibitory currents in acute brain slices", "type": "cell-based, mouse", "details": "slices from wild-type mice", "experimental": "Visualized whole-cell patch-clamp recordings were performed on layer 2/3 prefrontal cortical neurons prepared from acute brain slices (adult) using the protective recovery method^42. Recordings were performed in 34° C. artificial cerebrospinal fluid (ACSF) containing (in mM) 131.5 NaCl, 25 NaHCO3, 12 D-glucose, 2.5 KCl, 1.25 NaH2PO4, 2 CaCl2, and 1 MgCl2. ACSF also contained 3 mM kynurenic acid to block synaptic excitation and […] NO-711 to enhance tonic inhibition^43. Slices were incubated in this ACSF for 5-10 minutes prior to placement in the recording chamber. The patch pipette solution with elevated chloride contained (in mM) 140 CsCl, 4 NaCl, 1 MgCl2, 10 HEPES, 0.05 EGTA, 2 Mg-ATP, and 0.4 Mg-GTP^43. Once recordings equilibrated, baseline holding current in ACSF was measured for 3.5 minutes, after which ACSF containing IFN-γ (20 pg/mL) was applied for 8.5 minutes and then washed. Data presented show the mean holding current during the last minute of control (ACSF) and drug (ACSF+IFN-γ) conditions.", "note": "At least one structure is not confirmed: it was looked up by name or label, or the drawing left a doubt.", "data": [{"smiles": "CN1CCc2cc3c(cc2[C@H]1[C@@H]1OC(=O)c2c1ccc1c2OCO1)OCO3", "note": "[bicuculline, reference compound]", "values": [{"measurement": "tonic GABAergic inhibition of layer 2/3 neurons", "value": "blocked"}]}]}
